{"sequences": {"note": "The chains behind the UniProt entries cited, without tags or fusion partners. Where a name states a change or a piece, a line headed by the entry shows the natural chain unless it says otherwise.", "UniProt Q15722": "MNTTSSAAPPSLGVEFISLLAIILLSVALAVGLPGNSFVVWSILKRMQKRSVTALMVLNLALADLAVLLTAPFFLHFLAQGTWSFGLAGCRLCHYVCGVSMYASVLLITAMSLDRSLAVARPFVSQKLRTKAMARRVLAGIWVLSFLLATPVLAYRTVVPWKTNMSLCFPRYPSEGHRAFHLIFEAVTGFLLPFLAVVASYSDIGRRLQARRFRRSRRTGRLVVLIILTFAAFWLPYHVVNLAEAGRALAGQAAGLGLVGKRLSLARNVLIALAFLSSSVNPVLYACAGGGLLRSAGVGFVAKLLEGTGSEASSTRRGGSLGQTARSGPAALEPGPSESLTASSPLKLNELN"}, "source": "patent US6770259B2", "about": "“Simultaneous dual isotope imaging of cardiac perfusion and cardiac inflammation” (Bristol-Myers Squibb Pharma Company, priority 2000, dated 2004)", "molecular_target": "T1, PMN LTB4 receptor (Homo sapiens, UniProt Q15722)", "T1 construct": "endogenous in cells; host or cells: human neutrophils (PMN) isolated from heparinized blood", "assay": "LTB4 Human Neutrophil (PMN) Binding Assay", "settings": "competition with [3H]LTB4 (1 nM), 10 min at 4° C.", "note": "Some of these results come from one statement about several compounds together. At least one structure is not confirmed: it was looked up by name or label, or the drawing left a doubt."}
{"smiles": "CC(C)(CCCCOc1cc(-c2ccc3c(c2)OCO3)cc(-c2ccccc2)n1)CNC(=O)CC(NC(=O)c1ccc(NN=Cc2ccccc2S(=O)(=O)O)nc1)C(=O)NC(CC(=O)O)C(=O)NC(CC(=O)O)C(=O)NC(CC(=O)O)C(=O)O", "note": "(stereo not shown) [Example 88]", "values": [{"measurement": "result in the LTB4 human neutrophil binding assay", "value": "active"}]}
